The values that follow come from article PMC8839947.

The series addresses human serum albumin (HSA) (Homo sapiens) (UniProt P02768). Briefly: square-wave voltammetry (interference). The settings on record: 100 pM HSA together with 100 pM HIgG in presence of 10 pM CRP, no interference; 5'-NH2-(CH2)6; CRP incubation in 0.1 M Tris pH 7.4, 2 mM CaCl2, 60 min; SWV read-out in PBS (0.1 M, pH 7.4); BSA-blocked electrode; commercial protein.

A negative result means that nothing was seen under these conditions. At least one verdict rests on a figure or table, not on a statement of the authors.

Consider “GCCUGUAAGGUGGUCGGUGUGGCGAGUGUGUUAGGAGAGAUUGC [CRP RNA aptamer (5'-amino)]”, for which the binding result is recorded as “no binding”.
